From the supplement of paper PMC10849652
The list shows a part of the results.

Sequences of proteins named here, by UniProt entry; tags and fusion partners are left off. A change or cut given only in a name is not applied to a line headed by its entry.
UniProt Q6NUS6: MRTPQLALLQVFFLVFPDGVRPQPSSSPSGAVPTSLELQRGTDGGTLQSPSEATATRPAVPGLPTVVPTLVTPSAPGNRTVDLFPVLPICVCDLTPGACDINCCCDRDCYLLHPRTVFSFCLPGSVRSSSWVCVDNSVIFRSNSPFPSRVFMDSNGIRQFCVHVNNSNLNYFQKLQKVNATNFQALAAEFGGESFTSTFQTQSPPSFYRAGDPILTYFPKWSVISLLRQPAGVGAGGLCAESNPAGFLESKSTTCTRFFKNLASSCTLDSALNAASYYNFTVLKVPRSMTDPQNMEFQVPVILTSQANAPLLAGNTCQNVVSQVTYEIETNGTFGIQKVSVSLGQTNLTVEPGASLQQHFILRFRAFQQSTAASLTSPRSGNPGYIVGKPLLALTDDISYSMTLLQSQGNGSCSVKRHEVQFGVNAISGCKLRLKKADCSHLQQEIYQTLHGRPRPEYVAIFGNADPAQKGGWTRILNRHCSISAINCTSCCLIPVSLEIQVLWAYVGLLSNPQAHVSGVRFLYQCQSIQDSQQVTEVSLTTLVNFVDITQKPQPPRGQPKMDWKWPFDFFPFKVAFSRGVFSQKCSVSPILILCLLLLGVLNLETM
UniProt Q14188: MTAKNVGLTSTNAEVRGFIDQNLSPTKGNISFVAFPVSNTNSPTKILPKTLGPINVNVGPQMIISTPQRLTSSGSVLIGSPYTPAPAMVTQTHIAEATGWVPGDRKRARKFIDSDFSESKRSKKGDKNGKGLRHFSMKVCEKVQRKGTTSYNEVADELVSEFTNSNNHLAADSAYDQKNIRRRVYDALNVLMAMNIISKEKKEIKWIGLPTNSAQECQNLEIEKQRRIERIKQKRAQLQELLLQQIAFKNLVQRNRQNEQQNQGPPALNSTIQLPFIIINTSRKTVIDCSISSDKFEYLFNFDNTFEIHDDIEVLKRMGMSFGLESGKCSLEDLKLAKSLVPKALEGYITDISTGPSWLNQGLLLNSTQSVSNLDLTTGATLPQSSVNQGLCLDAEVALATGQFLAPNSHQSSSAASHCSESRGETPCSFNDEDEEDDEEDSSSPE
UniProt Q9P0N9: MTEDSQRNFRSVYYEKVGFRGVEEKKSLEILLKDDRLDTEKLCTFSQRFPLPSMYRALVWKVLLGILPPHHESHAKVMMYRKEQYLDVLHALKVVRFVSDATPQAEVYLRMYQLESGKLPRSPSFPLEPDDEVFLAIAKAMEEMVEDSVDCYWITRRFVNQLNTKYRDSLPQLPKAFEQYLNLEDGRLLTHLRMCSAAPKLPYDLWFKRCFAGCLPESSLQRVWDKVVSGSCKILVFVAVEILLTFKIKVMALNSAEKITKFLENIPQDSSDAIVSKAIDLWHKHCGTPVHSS
UniProt Q8TBR7: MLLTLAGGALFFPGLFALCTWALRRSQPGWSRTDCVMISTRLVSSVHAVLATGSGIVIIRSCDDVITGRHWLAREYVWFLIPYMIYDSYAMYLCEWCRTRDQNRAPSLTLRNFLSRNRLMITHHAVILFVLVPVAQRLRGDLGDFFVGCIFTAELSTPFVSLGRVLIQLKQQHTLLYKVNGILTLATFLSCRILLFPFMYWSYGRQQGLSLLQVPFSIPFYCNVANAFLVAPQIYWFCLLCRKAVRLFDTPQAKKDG
UniProt P15923: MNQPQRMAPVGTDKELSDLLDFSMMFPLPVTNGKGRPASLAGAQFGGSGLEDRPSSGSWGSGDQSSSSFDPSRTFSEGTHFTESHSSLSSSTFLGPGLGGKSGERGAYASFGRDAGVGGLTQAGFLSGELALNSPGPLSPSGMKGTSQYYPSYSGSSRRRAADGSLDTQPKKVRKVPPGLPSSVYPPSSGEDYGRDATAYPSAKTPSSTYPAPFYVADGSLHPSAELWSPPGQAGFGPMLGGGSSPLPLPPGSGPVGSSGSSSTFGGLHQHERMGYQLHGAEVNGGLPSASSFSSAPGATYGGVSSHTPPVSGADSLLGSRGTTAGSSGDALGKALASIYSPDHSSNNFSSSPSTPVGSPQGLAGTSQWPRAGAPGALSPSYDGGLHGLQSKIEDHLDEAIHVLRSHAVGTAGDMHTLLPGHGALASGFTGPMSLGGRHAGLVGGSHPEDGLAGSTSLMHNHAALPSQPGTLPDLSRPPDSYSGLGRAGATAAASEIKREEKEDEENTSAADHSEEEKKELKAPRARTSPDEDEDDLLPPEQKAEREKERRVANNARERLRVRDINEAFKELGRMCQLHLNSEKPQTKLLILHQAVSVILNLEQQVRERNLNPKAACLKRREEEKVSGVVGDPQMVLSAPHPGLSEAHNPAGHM
UniProt Q9BU02: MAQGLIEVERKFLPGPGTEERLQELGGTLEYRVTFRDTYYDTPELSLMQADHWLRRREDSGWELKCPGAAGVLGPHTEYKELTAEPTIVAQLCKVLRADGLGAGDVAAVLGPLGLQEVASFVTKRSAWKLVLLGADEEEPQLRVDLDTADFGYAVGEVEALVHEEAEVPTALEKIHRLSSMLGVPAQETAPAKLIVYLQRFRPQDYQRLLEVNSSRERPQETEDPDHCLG
UniProt Q5JUR7: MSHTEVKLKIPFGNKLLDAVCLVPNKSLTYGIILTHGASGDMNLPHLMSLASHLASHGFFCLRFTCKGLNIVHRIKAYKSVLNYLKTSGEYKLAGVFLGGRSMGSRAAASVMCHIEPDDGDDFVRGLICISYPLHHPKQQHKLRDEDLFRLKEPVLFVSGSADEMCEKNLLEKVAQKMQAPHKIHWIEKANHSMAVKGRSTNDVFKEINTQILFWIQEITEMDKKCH
UniProt P20226, whole entry, looked up: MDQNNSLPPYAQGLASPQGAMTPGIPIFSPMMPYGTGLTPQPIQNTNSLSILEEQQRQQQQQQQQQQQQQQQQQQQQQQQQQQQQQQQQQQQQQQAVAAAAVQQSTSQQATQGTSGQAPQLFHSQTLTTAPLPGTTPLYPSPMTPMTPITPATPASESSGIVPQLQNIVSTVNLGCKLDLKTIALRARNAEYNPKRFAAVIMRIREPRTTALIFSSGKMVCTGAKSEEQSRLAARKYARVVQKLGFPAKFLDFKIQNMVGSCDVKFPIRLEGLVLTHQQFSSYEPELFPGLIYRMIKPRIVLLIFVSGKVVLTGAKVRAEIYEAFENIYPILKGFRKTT
UniProt Q8N9U0: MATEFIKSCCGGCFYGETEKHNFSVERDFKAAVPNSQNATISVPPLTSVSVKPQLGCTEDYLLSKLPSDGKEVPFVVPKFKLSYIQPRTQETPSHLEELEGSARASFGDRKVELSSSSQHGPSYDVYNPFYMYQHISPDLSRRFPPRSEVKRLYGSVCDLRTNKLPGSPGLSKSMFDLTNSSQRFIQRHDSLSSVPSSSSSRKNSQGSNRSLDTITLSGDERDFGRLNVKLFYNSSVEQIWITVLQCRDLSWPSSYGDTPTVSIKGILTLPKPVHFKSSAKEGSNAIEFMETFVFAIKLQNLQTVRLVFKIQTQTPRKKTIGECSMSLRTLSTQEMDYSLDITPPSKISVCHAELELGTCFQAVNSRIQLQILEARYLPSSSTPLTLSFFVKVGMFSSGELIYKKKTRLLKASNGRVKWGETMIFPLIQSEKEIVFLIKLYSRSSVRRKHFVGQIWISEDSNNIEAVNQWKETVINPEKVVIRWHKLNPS
UniProt A6NFQ2: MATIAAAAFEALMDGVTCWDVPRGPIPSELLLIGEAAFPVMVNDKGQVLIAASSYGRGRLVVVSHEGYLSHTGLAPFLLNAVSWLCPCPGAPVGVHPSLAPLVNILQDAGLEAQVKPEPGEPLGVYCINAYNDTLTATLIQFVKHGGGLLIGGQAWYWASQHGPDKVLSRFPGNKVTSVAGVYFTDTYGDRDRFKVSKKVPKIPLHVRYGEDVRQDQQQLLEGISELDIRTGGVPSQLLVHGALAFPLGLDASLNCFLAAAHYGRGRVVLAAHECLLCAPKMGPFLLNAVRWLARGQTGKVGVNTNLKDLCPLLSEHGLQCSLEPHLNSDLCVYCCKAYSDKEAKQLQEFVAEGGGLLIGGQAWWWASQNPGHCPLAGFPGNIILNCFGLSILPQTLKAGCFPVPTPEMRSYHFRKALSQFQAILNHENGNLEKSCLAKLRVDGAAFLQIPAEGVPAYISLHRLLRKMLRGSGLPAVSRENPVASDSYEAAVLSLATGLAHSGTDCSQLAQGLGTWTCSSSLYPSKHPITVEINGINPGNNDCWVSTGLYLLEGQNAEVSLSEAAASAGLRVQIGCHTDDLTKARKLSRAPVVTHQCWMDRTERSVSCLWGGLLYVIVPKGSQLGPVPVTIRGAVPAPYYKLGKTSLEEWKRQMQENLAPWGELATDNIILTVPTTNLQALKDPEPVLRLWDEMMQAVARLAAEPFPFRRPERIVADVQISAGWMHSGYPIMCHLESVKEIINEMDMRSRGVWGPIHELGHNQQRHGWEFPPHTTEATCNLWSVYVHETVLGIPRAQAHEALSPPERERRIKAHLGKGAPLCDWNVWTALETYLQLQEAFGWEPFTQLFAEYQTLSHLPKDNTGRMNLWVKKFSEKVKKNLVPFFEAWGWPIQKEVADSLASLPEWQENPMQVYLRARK
UniProt Q8NHU6: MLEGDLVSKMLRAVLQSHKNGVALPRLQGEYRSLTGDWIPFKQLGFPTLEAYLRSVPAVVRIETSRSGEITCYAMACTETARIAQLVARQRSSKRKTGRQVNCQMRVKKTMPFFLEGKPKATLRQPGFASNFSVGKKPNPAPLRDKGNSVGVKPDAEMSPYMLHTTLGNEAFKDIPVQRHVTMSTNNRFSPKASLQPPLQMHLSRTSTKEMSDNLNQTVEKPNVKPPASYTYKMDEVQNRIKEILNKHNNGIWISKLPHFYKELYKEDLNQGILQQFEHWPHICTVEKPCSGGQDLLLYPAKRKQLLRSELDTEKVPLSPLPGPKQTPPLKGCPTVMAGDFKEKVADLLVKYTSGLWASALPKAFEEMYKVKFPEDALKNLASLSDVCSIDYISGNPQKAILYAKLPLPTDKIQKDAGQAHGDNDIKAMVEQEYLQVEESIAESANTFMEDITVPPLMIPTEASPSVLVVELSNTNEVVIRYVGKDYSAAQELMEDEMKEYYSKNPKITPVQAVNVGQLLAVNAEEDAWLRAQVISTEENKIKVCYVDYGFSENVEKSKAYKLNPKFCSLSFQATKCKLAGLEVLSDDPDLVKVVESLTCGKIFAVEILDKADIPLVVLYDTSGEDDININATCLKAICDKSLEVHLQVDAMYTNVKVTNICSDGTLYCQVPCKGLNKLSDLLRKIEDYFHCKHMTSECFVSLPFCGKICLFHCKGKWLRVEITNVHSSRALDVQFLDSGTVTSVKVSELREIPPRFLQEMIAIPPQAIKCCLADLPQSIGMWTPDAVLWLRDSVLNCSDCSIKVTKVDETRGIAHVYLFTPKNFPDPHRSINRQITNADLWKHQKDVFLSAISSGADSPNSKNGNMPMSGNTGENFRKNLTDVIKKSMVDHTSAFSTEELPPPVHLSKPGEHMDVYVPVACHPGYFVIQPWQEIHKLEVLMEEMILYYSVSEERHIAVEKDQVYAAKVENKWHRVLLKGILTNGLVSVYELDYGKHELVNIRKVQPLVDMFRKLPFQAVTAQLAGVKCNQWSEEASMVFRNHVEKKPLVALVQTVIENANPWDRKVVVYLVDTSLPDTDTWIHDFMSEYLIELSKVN
UniProt O43422: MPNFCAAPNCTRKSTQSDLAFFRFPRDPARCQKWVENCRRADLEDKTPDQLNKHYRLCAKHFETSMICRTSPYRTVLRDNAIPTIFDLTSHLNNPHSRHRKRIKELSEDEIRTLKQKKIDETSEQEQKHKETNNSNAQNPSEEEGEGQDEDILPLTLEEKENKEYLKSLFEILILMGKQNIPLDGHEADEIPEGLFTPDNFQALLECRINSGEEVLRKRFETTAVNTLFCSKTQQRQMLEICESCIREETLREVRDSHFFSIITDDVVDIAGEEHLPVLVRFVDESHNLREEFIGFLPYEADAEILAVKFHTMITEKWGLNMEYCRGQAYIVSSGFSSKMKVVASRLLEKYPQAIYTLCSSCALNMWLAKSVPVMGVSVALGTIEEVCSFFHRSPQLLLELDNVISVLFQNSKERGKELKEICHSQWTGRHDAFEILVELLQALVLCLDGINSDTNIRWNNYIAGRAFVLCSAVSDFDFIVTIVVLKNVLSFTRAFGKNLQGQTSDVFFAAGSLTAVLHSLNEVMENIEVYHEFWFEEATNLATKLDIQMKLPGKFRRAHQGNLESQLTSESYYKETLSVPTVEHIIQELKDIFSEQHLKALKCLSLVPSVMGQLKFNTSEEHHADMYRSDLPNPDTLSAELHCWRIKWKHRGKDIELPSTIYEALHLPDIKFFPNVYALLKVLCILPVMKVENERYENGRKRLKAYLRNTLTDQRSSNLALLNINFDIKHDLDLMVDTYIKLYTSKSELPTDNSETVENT
UniProt Q96EI5: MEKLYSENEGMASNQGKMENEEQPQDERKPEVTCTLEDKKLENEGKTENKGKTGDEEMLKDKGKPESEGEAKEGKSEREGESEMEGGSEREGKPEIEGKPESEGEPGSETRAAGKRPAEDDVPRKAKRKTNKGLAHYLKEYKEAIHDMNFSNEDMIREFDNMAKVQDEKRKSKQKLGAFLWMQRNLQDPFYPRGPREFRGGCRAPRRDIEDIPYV

The targets below were run with CC1=C(C=C(C=C1)NC(=O)C2=CC(=CC=C2)C(C)(C)C#N)NC3=CC4=C(C=C3)N=CN(C4=O)C (assay: log2 fold change, soluble protein after heating vs DMSO (PISA); higher = thermal stabilisation; K562 cells, 10 uM, 30 min; active = over 0.2 and 3.5 SD of the protein, either way, in both replicates (recomputed)).
In short: (§1)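 K562 cells (2×10^6 cells/mL) were treated with 10 μM compound for 30 min, and aliquots were heated for 3 min over 48°C-58°C. Pooled aliquots were extracted in PBS with 0.5% NP-40 at 4°C, and the supernatant after 21,000xg for 90 min was measured by TMTpro 16plex LC-MS/MS with channel sums equalised. Reported thermal stability, relative to control samples and from duplicates, is a log2 fold change.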

Target	log2 fold change
TIFA (UniProt Q96CG3)	inactive: -0.091
TCTN3 (UniProt Q6NUS6)	inactive: -0.054
TGDS (UniProt O95455)	inactive: -0.06
TBC1D2B (UniProt Q9UPU7)	inactive: -0.035
TEX10 (UniProt Q9NXF1)	inactive: -0.055
TFDP2 (UniProt Q14188)	inactive: -0.081
TBC1D7 (UniProt Q9P0N9)	inactive: 0.334
TLCD3A (UniProt Q8TBR7)	inactive: -0.058
TCEAL9 (UniProt Q9UHQ7)	inactive: -0.216

These targets were tested with CC1=C(C=C(C=C1)NC(=O)C2=CC(=CC=C2)N(C)C)NC(=O)C3=CC=C(C=C3)O in the same assay as above.
In short: as §1

Target	log2 fold change
TCF3 isoform 2 (UniProt P15923)	inactive: -0.094
THTPA (UniProt Q9BU02)	inactive: -0.031
THEMIS2 (UniProt Q5TEJ8)	inactive: 0.123
TEX30 (UniProt Q5JUR7)	inactive: -0.182
TBP (UniProt P20226)	inactive: -0.04
TCIRG1 (UniProt Q13488)	inactive: -0.055
TC2N (UniProt Q8N9U0)	inactive: 0.077
TFAP4 (UniProt Q01664)	inactive: -0.036
TCF25 (UniProt Q9BQ70)	inactive: -0.122
TCAF2 (UniProt A6NFQ2)	inactive: -0.282
TDRD7 (UniProt Q8NHU6)	inactive: -0.048
TGM2 (UniProt A2A299)	inactive: -0.084
TCF20 (UniProt Q9UGU0)	inactive: 0.266
THAP12 (UniProt O43422)	inactive: -0.126
THAP9 (UniProt Q9H5L6)	inactive: 0.017
TCEAL4 isoform 2 (UniProt Q96EI5)	inactive: -0.181

At a glance, some entries already given:
Target	log2 fold change
TBP (UniProt P20226)	inactive: -0.04
TCIRG1 (UniProt Q13488)	inactive: -0.055
